From paper PMC9967964

How the values were obtained:
[1] = target: NOX4 (guinea pig (endogenous in guinea pig spermatozoa)); test: co-IP; anti-NOX4 IgG crosslinked (DSS) to Protein A/G agarose, incubated at 4 °C for 12 h with 500 µg precleared guinea pig spermatozoa protein extract; Western blot for NOX2; extracts of non-capacitated spermatozoa, and of spermatozoa capacitated in the presence of calpeptin (10 µM)
[2] = target: NOX4 (guinea pig (endogenous in guinea pig spermatozoa)); test: co-IP; anti-NOX4 IgG crosslinked (DSS) to Protein A/G agarose, incubated at 4 °C for 12 h with 500 µg precleared guinea pig spermatozoa protein extract; Western blot for NOX2; extracts of capacitated spermatozoa
[3] = target: NOX4 (guinea pig (endogenous in guinea pig spermatozoa)); test: condition: only spermatozoa capacitated in the presence of VAS2870; co-IP; anti-NOX4 IgG crosslinked (DSS) to Protein A/G agarose, incubated at 4 °C for 12 h with 500 µg precleared guinea pig spermatozoa protein extract; Western blot for NOX2; extracts of spermatozoa capacitated in the presence of VAS2870

B1: NOX2 (protein, UniProt H0UXC6 1-570)
chain: MGNWAVNEGISIVVILLWLGINAFLFVHYYKLYDEEPKYFYTRKLLGKALAWARAPAACLNFNCMLILLPVCRNLLSFLRGSSACCSTRIRRQLDRNLTFHKMVAWMIALHTAIHTVAHLFNVEWCVDAQVGNSDPYSVALSKIGDKDGESYLNFAREKIKNPAGGLYVAVTRLAGVTGIVITLCLILIITSSTKTIRRSYFEVFWYTHHLFVIFFIGLAIHGAERIVRGQTAKSLEEHNIMICKQNFTEWGKIKNCPVPEFAGNPPMTWKWIVGPMFLYLCERLVRFWRSQQKVVITKVVTHPFKTIELQMKKKGFKMEVGQYIFVKCPIVSKLEWHPFTLTSAPEEDFFSIHIRIVGDWTEGLFNACGCDKQEFQDAWKLPKIAVDGPFGTASEDVFSYEVVMLVGAGIGVTPFASILKSVWYKYCNNATNLKLKKIYFYWLCRDTHAFEWFADLLQLLETQMQERNNANFLSYNIYLTGWDESQANHFAVHHDEEKDVITGLKQKTLYGRPNWDNEFKTIGSQHPNTRIGVFLCGPEALAKTLNKQCISNSDSAPRGVHFIFNKENF
binding [1]: binds
binding [2]: no binding (only capacitated spermatozoa)
binding [3]: no binding

No constants are given. Whether binding was seen depends on the method and setting. Binding seen in cells or lysates may run through a third protein. For part of these data: Binding can be weak; no strength is given.
